Data from patent publication US4849345A, “L-phenylalanine dehydrogenase and use thereof” (priority 1985, dated 1989).

Target: T1, L-phenylalanine dehydrogenase produced by Bacillus sp. SCRC-R79a (Lysinibacillus sphaericus, UniProt P23307)
T1 sequence (P23307 1-381): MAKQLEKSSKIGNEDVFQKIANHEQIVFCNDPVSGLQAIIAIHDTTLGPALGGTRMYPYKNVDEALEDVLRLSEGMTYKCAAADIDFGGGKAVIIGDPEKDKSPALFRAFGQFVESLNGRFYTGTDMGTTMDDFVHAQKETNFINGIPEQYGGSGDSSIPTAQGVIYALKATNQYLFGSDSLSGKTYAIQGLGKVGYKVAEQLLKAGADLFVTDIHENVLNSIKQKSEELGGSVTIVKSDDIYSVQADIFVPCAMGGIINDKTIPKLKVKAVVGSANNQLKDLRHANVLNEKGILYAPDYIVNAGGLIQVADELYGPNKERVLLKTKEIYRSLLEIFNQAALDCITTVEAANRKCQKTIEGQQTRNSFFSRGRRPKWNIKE
Settings: pH 9.0; phenylpyruvate to L-phenylalanine as 100%

O=C(O)C(=O)Cc1ccc(O)cc1 [4-hydroxyphenypylruvate]
relative rate of converting the α-keto acid to the L-amino acid: 176%
